Several values for one entry are separate records, joined by “and”; a condition that tells them apart may be missing. Equal entries are not always repeated. Hit rate of the full screen: of about 300,000 compounds, about 5,400 (1.8%) were called active. This list was built around the results that the source calls inconclusive (neither active nor inactive); the mix of calls is not that of the screen. Calls come from the whole dose curve; tested in HEK293 cells. A potency beside an inconclusive call is a rough fit, not a confirmed value.
assay: qHTS for inhibitors of binding or entry into cells for Marburg Virus; conditions: Marburg virus pseudotyped entry inhibition, cell reporter; series mostly up to 37.8 µM
Potency is the fitted concentration of half-maximal effect.

Row | SMILES | Potency
1 | Cc1c(C(=O)Nc2ccccn2)oc2ccc(Br)cc12 | inconclusive: 31.6 µM [inhibitor, single point]
2 | CN(Cc1cc(=O)n2ccsc2n1)Cc1nc2ccccc2c(=O)[nH]1 | inconclusive: 6.31 µM [inhibitor, single point]
3 | Cc1ccc(O)c(NC(=O)c2cc(-c3ccccc3Cl)on2)c1 | inconclusive: 35.5 µM [inhibitor, single point]
4 | Cc1cccc(NS(=O)(=O)c2cc(C(=O)OCC(=O)Nc3cc(C)on3)ccc2C)c1 | inconclusive: 29.1 µM [inhibitor, single point]
5 | CCOC(=O)c1c(NC(=O)CSc2nc3ccccc3s2)sc(C(C)=O)c1C | inconclusive: 29.1 µM [inhibitor, single point]
6 | CC(C)S(=O)(=O)c1oc(-c2cccs2)nc1S(=O)(=O)c1ccc(F)cc1 | inconclusive: 14.1 µM [inhibitor, partial curve, poor fit]
7 | Cc1ccc(NC(=O)c2c(C)oc3ccc(O)c(CN4CCCCCC4)c23)cc1 | inconclusive: 10 µM [inhibitor, partial curve, poor fit]
8 | Cc1ccc(-c2cc(C(=O)NC3CCN(Cc4ccccc4)CC3)c3ccccc3n2)cc1 | inconclusive: 11.2 µM [inhibitor, partial curve, poor fit]
9 | Cc1cc(C)cc(NC(=O)c2cc(C)nc3ccccc23)c1 | inactive
10 | COc1cc(/C=N/NC(=O)c2ccc(CN(C)S(=O)(=O)c3ccc(C)cc3)cc2)ccc1O | inconclusive: 1.78 µM [inhibitor, partial curve, poor fit]
11 | N#C/C(=C\c1ccc(-c2ccccc2)o1)C(=O)Nn1cnnc1 | inconclusive: 29.1 µM [inhibitor, single point]
12 | O=C(Nc1ccc(S(=O)(=O)NC2CCCCC2)cc1)c1ccco1 | inconclusive: 16.4 µM [inhibitor, partial curve, poor fit]
13 | Cc1cc(C)nc(SCCCn2c(=O)[nH]c3ccccc32)n1 | inconclusive: 0.0058 µM [inhibitor, full curve, poor fit]
14 | O=C(O)c1ccc(C=NN2CCCCCC2)cc1 | inconclusive: 35.5 µM [inhibitor, single point]
15 | O=C1NC(=O)C2(COC3(CCCC3)OC2)S1 | inactive
16 | COCCn1nnnc1C(c1ccc(C)cc1)N1CCN(Cc2ccc3c(c2)OCO3)CC1 (stereo not given) | inactive and inconclusive: 6.31 µM [activator, single point]
17 | Cc1c(CC(=O)NCCc2ccccc2F)c(=O)oc2cc(O)c(Cl)cc12 | inactive
18 | CCOC(=O)c1csc(NC(=O)Nc2cccc(Cl)c2)n1 | inconclusive: 3.98 µM [inhibitor, partial curve, poor fit]
19 | CCCC(C)C(=O)Nc1ccccc1C(=O)OCC (stereo not given) | inconclusive: 0.501 µM [activator, partial curve, poor fit]
20 | O=C(COc1ccccc1[N+](=O)[O-])N1CCC(c2nc3ccccc3o2)CC1 | inactive
21 | O=C1/C(=C/c2ccc([N+](=O)[O-])cc2)Oc2cc(O)ccc21 | inconclusive: 1.78 µM [inhibitor, single point]
22 | CN1CCN(c2cc(N3CCNCC3)ccc2[N+](=O)[O-])CC1 | active: 5.01 µM

Rewritten in markdown: part of the list above

| Row | SMILES | Potency |
| --- | --- | --- |
| 16 | COCCn1nnnc1C(c1ccc(C)cc1)N1CCN(Cc2ccc3c(c2)OCO3)CC1 (stereo not given) | inactive and inconclusive: 6.31 µM [activator, single point] |
| 17 | Cc1c(CC(=O)NCCc2ccccc2F)c(=O)oc2cc(O)c(Cl)cc12 | inactive |

The listing continues.

Row | SMILES | Potency
23 | O=C(CCNC(=O)c1ccccc1Cl)Nc1cccc(C(F)(F)F)c1 | inconclusive: 6.51 µM [inhibitor, single point]
24 | CC/C(=C\C=C\[C@@H]1C=C[C@@H]2CCC[C@H]2[C@@H]1C(=O)c1ccc[nH]1)[C@@H]1O[C@@H]([C@@H](C)C(=O)O)CC[C@@H]1C | inconclusive: 7.3 µM [inhibitor, partial curve, poor fit]
25 | CCCCCn1nc(C(=O)OCC(=O)c2c(N)n(C)c(=O)n(C)c2=O)c2ccccc2c1=O | inconclusive: 10 µM [inhibitor, partial curve, poor fit]
26 | Nc1nonc1C(=O)NCCNCc1cccc(Cl)c1Cl | inactive
27 | NCCc1c[nH]c2ccccc12 | inconclusive: 0.1 µM [inhibitor, full curve, poor fit]
28 | COc1ccccc1C(=O)Nc1ccc(C(=O)N2CCCCC2)cc1 | inactive
29 | COc1ccc2[nH]c(C)c(CCN(Cc3cccs3)C(=S)Nc3cccc(F)c3)c2c1 | inactive
30 | O=c1oc2ccccc2c(NC(c2ccccc2)c2ccccc2)c1[N+](=O)[O-] | inconclusive: 11.2 µM [inhibitor, partial curve]
31 | COc1ccc(C2NCCCC2c2ccccc2)cc1 (stereo not given) | inconclusive: 17.8 µM [inhibitor, single point]
32 | O=C(Nc1ccc(Cl)c(S(=O)(=O)N2CCOCC2)c1)c1ccc(Cl)nc1 | inconclusive: 1.12 µM [inhibitor, single point]
33 | C=CCNC(=O)NC(=O)CSc1nc2cc([N+](=O)[O-])ccc2n1-c1cccc(C(F)(F)F)c1 | inconclusive: 8.91 µM [inhibitor, partial curve, poor fit]
34 | COc1cc2c(C#N)c(N3CCOCC3)nc(N)c2c(N)n1 | inconclusive: 35.5 µM [inhibitor, single point]
35 | COc1cc(S(=O)(=O)Nc2ccc(C)cc2)ccc1N=Cc1c(C)[nH]n(-c2ccccc2)c1=O | inconclusive: 0.0164 µM [activator, single point]
36 | CCN1C(=O)C(CC(=O)Nc2ccc(OC)cc2)N(Cc2ccc3c(c2)OCO3)C1=S (stereo not given) | inconclusive: 0.501 µM [activator, partial curve, poor fit]
37 | O=C(c1ccccn1)N(Cc1cccs1)C1(C(=O)NC2CCCCC2)CCCCC1 | inconclusive: 2.24 µM [inhibitor, full curve, poor fit]
38 | CSc1ccc(CN2CCN(Cc3ccccc3)C(CCO)C2)cc1 (stereo not given) | inconclusive: 14.1 µM [inhibitor, partial curve, poor fit]
39 | COc1cc(/C=N/NC(=S)NCCc2ccccc2)cc(OC)c1OC | inconclusive: 5.62 µM [activator, single point]
40 | Cc1cc(C)nc(SCC(=O)Nc2ccnc3ccccc23)n1 | inconclusive: 1.26 µM [inhibitor, full curve]
41 | O=C(Nc1ncc(Cc2ccccc2Cl)s1)C1CCCO1 (stereo not given) | inconclusive: 20.6 µM [inhibitor, single point]
42 | COc1ccc(CC(=O)Nc2ccc(S(=O)(=O)N3CCCC3)cc2)cc1OC | inactive
43 | Cn1c(=O)n(C)c2cc(NC(=O)CSc3nnc(-c4ccccc4O)n3-c3ccccc3)ccc21 | inconclusive: 25.1 µM [inhibitor, partial curve, poor fit]
44 | c1ccc(Cc2nc3ccccc3s2)cc1 | inactive

Row | SMILES | Potency
45 | Nc1nc(NCC2CCCO2)nc(Nc2ccccc2)c1[N+](=O)[O-] (stereo not given) | inactive
46 | O=C(NC(=S)NCc1ccccc1)c1ccccc1F | inactive
47 | CCN(c1ccc(F)cc1)S(=O)(=O)c1ccc2[nH]cc(C(=O)NCCCN3CCOCC3)c(=O)c2c1 | inconclusive: 35.5 µM [inhibitor, single point]
48 | Cc1cccc(NC(=O)CCCN2C(=O)c3ccccc3C2=O)n1 | inconclusive: 17.8 µM [activator, partial curve, poor fit]
49 | O=C(COc1ccc(S(=O)(=O)NC2CCCCC2)cc1)NC1CCCC1 | inconclusive: 3.26 µM [inhibitor, single point]
50 | O=C(N/N=C/c1ccncc1)c1ccc(NC(=O)c2cccc(Cl)c2)cc1 | inactive
51 | Cc1cccc(NS(=O)(=O)c2ccc(C(=O)NCC3(N4CCCCC4)CCCCC3)cc2)c1C | active: 11.2 µM
52 | Cc1cc(C)c(OCCCCCNCCO)c(C)c1 | inconclusive: 29.1 µM [inhibitor, partial curve, poor fit]
53 | Cc1cc(C)c2nc(/N=C(\N)NC(=O)c3ccccc3)nc(C)c2c1 | inconclusive: 0.501 µM [inhibitor, full curve]
54 | Cc1cccc(Nc2nc(NCc3ccco3)nc(N)c2[N+](=O)[O-])c1 | active: 5.62 µM
55 | COc1cccc(-c2noc(-c3ccoc3C)n2)c1 | inactive
56 | O=[N+]([O-])c1cccc(NC2=NCCC2)c1 | inconclusive: 35.5 µM [activator, single point]
57 | Cc1cc(C)n(-c2ccc(C(=O)Nc3cc(S(=O)(=O)N(C)C)ccc3Cl)cc2)n1 | inconclusive: 10 µM [inhibitor, partial curve, poor fit]
58 | COC(=O)NC(C=Cc1ccccc1)C(C(C)=O)C(=O)OC (stereo not given) | inconclusive: 6.68 µM [inhibitor, single point]
59 | Cc1cc(=O)oc2cc(OCCSCCN3CCOCC3)ccc12 | inactive
60 | O=C(CCCN1C(=O)/C(=C\c2ccccc2)SC1=S)Nc1ccc(O)cc1 | inconclusive: 7.08 µM [inhibitor, full curve, poor fit]
61 | CCn1c(=O)n(CC(=O)N(C)Cc2ccccc2)c(=O)c2ccccc21 | inconclusive: 14.1 µM [inhibitor, single point]
62 | Cc1noc(C)c1C(=O)OCC(=O)NC(=O)NC12CC3CC(CC(C3)C1)C2 | inconclusive: 29.1 µM [inhibitor, single point]
63 | O=C(CN1CCN(S(=O)(=O)c2ccccc2)CC1)Nc1ccccc1C(=O)c1ccccc1 | inconclusive: 35.5 µM [inhibitor, single point]
64 | Cn1c(=O)c(NC2CCCCC2)c2c3c(cccc31)C(=O)c1ccccc1-2 | inconclusive: 11.2 µM [inhibitor, partial curve, poor fit]
65 | O=c1c(Cl)c(N2CCN(c3ccc(F)cc3)CC2)cnn1-c1nc2ccccc2s1 | inconclusive: 35.5 µM [inhibitor, single point]

— PubChem BioAssay AID540276 (National Center for Advancing Translational Sciences (NCATS), 2011)
